PubChem BioAssay AID652243 | Drosophila RNAi Screening Center | 2013

- Screen: 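Knock-downs that decrease or increase androgen receptor reporter signal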 (primary screen)
- Cells: Drosophila S2R+ cells
- Reagents: long dsRNA against Drosophila genes
- Timing: 72 h (48 h, then 24 h hormone)
- Treatment: synthetic androgen R1881 at 10 nM for 24 h
- Measurement: 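Firefly light from an androgen-responsive reporter and Renilla control light per well, raw and unnormalised, for each of two replicates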
- Direction: firefly reporter light: higher = more light from androgen-responsive reporter; Renilla control light: higher = more constitutive control signal (cell number, transfection)
- Hit rule: 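Hit when the log firefly-to-Renilla ratio dropped or increased by a fixed fold versus the mean of GFP or LacZ controls across duplicate plates; lowering cut given as 1.5 and as 3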
- Calls: active = hit: reporter lowered or raised; inactive = no hit
In all, the deposit lists about 24,000 reagents; this is a random part of those with a known target gene and a result. Of all reagents, 246 (1%) are marked active. 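Plates not normalised; calls are printed but the firefly/Renilla ratio behind them is not deposited; fold cut for lowering reported inconsistently.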 The raw values are shown without normalisation. Names joined by + are all predicted targets of the reagent. The record does not give: the amount of reagent.

target gene | DRSC id | firefly reporter light, replicate 1 | firefly reporter light, replicate 2 | Renilla control light, replicate 1 | Renilla control light, replicate 2 | Call
pall (GeneID 39104) | DRSC10364 | 1.50e6 | 3.85e5 | 1.12e6 | 4.52e5 | inactive
Tk (GeneID 41456) | DRSC14954 | 4.41e5 | 4.72e5 | 1.81e6 | 2.16e6 | inactive
Tk (GeneID 41456) | DRSC21972 | 6.04e5 | 7.35e5 | 1.56e6 | 1.38e6 | inactive
Tk (GeneID 41456) | DRSC27140 | 2.66e5 | 2.36e5 | 6.52e5 | 4.22e5 | inactive
sw + Sdic4 + Sdic3 + 2 more | DRSC20696 | 1.00e5 | 1.25e5 | 3.39e5 | 2.94e5 | inactive
sw + Sdic4 + Sdic3 + 2 more | DRSC29154 | 1.40e6 | 9.45e5 | 1.73e6 | 1.42e6 | inactive
CG8679 (GeneID 35395) | DRSC03109 | 90762 | 1.59e5 | 1.32e6 | 1.90e6 | inactive
Trf (GeneID 34102) | DRSC03462 | 1.86e5 | 2.74e5 | 1.50e6 | 2.11e6 | inactive
CG4440 (GeneID 50458) | DRSC02747 | 1.07e5 | 51365 | 2.13e6 | 1.82e6 | inactive
CG4440 (GeneID 50458) | DRSC28042 | 9.10e5 | 1.09e6 | 1.61e6 | 1.82e6 | inactive
CG30036 (GeneID 246408) | DRSC21334 | 7.06e5 | 6.90e5 | 2.82e6 | 1.70e6 | inactive
dgt6 (GeneID 43441) | DRSC14424 | 35862 | 51265 | 4.46e5 | 4.55e5 | inactive
SmF (GeneID 36314) | DRSC07397 | 2.51e5 | 2.21e5 | 1.17e6 | 1.26e6 | inactive
SmF (GeneID 36314) | DRSC25054 | 6.08e5 | 2.70e5 | 4.55e5 | 4.18e5 | inactive
Nrx-IV (GeneID 39387) | DRSC11238 | 1.10e6 | 6.57e5 | 1.94e6 | 1.63e6 | inactive
CG13640 (GeneID 42967) | DRSC14639 | 1.58e5 | 1.79e5 | 1.37e6 | 1.20e6 | inactive
CG17361 (GeneID 39548) | DRSC23446 | 5.96e5 | 7.11e5 | 6.43e5 | 5.71e5 | inactive
ranshi (GeneID 41041) | DRSC16564 | 1.14e5 | 1.30e5 | 1.75e6 | 1.94e6 | inactive
ranshi (GeneID 41041) | DRSC29605 | 3.84e5 | 5.59e5 | 6.56e5 | 6.56e5 | inactive
VhaM9.7-b (GeneID 40389) | DRSC11841 | 3.25e5 | 2.38e5 | 2.56e6 | 2.04e6 | inactive
BomS3 (GeneID 50209) | DRSC21458 | 7.63e5 | 6.07e5 | 8.43e5 | 7.37e5 | inactive
BomS3 (GeneID 50209) | DRSC28620 | 4.47e5 | 4.36e5 | 8.53e5 | 8.01e5 | inactive
Nadk2 (GeneID 35918) | DRSC07072 | 1.06e6 | 1.06e6 | 1.78e6 | 1.98e6 | inactive
eIF2Bbeta (GeneID 31256) | DRSC18465 | 3.05e5 | 2.72e5 | 3.52e6 | 3.57e6 | inactive
eIF2Bbeta (GeneID 31256) | DRSC28495 | 2.69e5 | 6.23e5 | 6.34e5 | 1.44e6 | inactive

4 entries already listed, sorted by “firefly reporter light, replicate 2”, lowest first:
target gene | DRSC id | firefly reporter light, replicate 1 | firefly reporter light, replicate 2 | Renilla control light, replicate 1 | Renilla control light, replicate 2 | Call
sw + Sdic4 + Sdic3 + 2 more | DRSC20696 | 1.00e5 | 1.25e5 | 3.39e5 | 2.94e5 | inactive
CG8679 (GeneID 35395) | DRSC03109 | 90762 | 1.59e5 | 1.32e6 | 1.90e6 | inactive
Trf (GeneID 34102) | DRSC03462 | 1.86e5 | 2.74e5 | 1.50e6 | 2.11e6 | inactive
sw + Sdic4 + Sdic3 + 2 more | DRSC29154 | 1.40e6 | 9.45e5 | 1.73e6 | 1.42e6 | inactive
